Source: publication PMC5320558, “The general PTS component HPr determines the preference for glucose over mannitol” (Scientific Reports, 2017)
No constants are given. Whether binding was seen depends on the method and setting. In cells and extracts the contact can be indirect. These calls come from enrichment with a bait or labelling near it, and not all partners need be listed. A no says only that the protein was not detected with the bait. Sequences can lack the tags named with a protein.

Molecular target: T1, cytosolic region (residues 348-637) of MtlA covering the EIIA and EIIB domains, with a His tag at the N-terminus (E. coli) (UniProt P00550)
T1 sequence: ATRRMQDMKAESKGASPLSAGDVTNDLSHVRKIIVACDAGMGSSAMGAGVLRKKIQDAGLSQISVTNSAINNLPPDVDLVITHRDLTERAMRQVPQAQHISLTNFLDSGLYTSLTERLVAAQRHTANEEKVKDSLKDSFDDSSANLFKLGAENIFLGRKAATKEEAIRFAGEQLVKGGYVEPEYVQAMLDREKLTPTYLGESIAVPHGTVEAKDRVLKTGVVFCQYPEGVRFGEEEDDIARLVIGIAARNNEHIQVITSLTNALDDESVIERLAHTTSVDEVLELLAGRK
Assay: affinity purification with mass spectrometry; ligand fishing: E. coli MG1655 lysate mixed with purified His-tagged bait (400 ug His-MtlR or 500 ug His-MtlA(cyto)) and TALON metal affinity resin, 4 °C, 30 min, buffer A (20 mM HEPES pH 7.5, 100 mM NaCl), eluted with 150 mM imidazole; SDS-PAGE, Coomassie; band identified by MALDI-TOF peptide mass fingerprinting; only the target purified

histidine-containing phosphocarrier protein HPr of the PTS (endogenous) (from UniProt P0AA04 1-85)
binding: no binding
